# Reference: PMC7819943, “Rice protein-binding microarrays: a tool to detect cis-acting elements near promoter regions in rice”
# By UniProt entry, the sequences of proteins in these tests, tags left out.
# UniProt Q0JBA9, entry or part of it: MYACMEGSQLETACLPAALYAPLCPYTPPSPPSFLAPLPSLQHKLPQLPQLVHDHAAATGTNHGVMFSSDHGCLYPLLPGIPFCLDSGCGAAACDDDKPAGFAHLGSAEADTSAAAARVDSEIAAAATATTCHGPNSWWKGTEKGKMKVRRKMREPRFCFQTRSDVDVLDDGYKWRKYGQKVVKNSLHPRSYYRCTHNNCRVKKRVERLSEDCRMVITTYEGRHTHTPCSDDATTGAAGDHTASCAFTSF
# Some of the results follow.
# Biological target: OsWRKY34 (Oryza sativa, UniProt Q0JBA9 1-250)
# Test: protein-binding microarray (RPBM); PBS, 2% BSA, 51.3 ng/ul salmon testes DNA, 50 uM zinc acetate, 200 nM TF, 25 C, 1 h; high values mean tight binding
# Conditions: protein: recombinant; tags: N-terminal polyhistidine and DsRed monomer fusion (pET32a); label: CyDye5-dUTP incorporated in the synthesized complementary strand; 3' TTTTT single-stranded linker to array surface; dsDNA, one strand shown
# In short: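 Transcription factors were made in E. coli BL21-CodonPlus as N-terminal fusions to a polyhistidine tag and DsRed, then purified on Ni–NTA. After primer extension with Cy5-dUTP and blocking with 2% BSA, a custom Agilent array was exposed for 1 h at 25 °C to 200 nM protein in PBS, 2% BSA, salmon testes DNA and 50 µM zinc acetate. Washed arrays were scanned on an Axon 4000B, and the binding signal is per-feature fluorescence intensity in arbitrary units.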
row,Sequence,binding signal
1,TTTTTTACCTACCTCCACTTCTGAATCAATTGTAGTTTTTCGGAGTCACCTAGTGCAG,8480 fluorescence intensity (a.u.)
2,CCCACACTGTATGACCTGCCCAGCTATTGAAACATCAAATCGGAGTCACCTAGTGCAG,8190 fluorescence intensity (a.u.)
3,CTCGTTCCCACGGGATCCCGTGGTCTAGCTATCCTCATTACGGAGTCACCTAGTGCAG,9950 fluorescence intensity (a.u.)
4,CTAAGCTGTGATTTCTTTTCTTTATGTCACCACCTCCAAACGGAGTCACCTAGTGCAG,8890 fluorescence intensity (a.u.)
5,GCGCTTCTTCTCTGCTTCGTTTCACAGGGTTGTTGATGGCCGGAGTCACCTAGTGCAG,9960 fluorescence intensity (a.u.)
6,TCCTCTTCTTTTCTCTCCCTCCGCCACTCGACGCCCAACCCGGAGTCACCTAGTGCAG,9310 fluorescence intensity (a.u.)
7,TCTAGCGTAACATGTTCTTCCATTGATAGTTTGGTGGGATCGGAGTCACCTAGTGCAG,8310 fluorescence intensity (a.u.)
8,GAGAGAGAGGGAGGGAGAGGCTGGCTGGGGAGACGGAACACGGAGTCACCTAGTGCAG,8830 fluorescence intensity (a.u.)
9,GGCGGAGGTGGAGGTGCTGGCCGCTGGATGGTCGCAGAGGCGGAGTCACCTAGTGCAG,8880 fluorescence intensity (a.u.)
10,CTTCTGTAGAATCCTCCGCCTCCGCTTCTCTCTCTCGTCGCGGAGTCACCTAGTGCAG,9700 fluorescence intensity (a.u.)
11,TGTTATTGTGCTGTAATCCTTTCCACTCGTTCCCATTCCTCGGAGTCACCTAGTGCAG,9980 fluorescence intensity (a.u.)
12,GGAGATTGGAAGATTAGCTTTGTTTTTAGCATGTTCTGCCCGGAGTCACCTAGTGCAG,8890 fluorescence intensity (a.u.)
13,TCGGTTGTCTGGTTTTTGTAAGATGAGGGACAGTTCAGTTCGGAGTCACCTAGTGCAG,8160 fluorescence intensity (a.u.)
14,CTCTCTCTGCTTCGATTCGATTCGATTCGATCTTCTCCACCGGAGTCACCTAGTGCAG,8190 fluorescence intensity (a.u.)
15,TATTGATGGGCTGCTCATTCTAGTTGGGTCCGACCGGCGTCGGAGTCACCTAGTGCAG,9310 fluorescence intensity (a.u.)
16,TTAGTAGCTCAATGTCATTGGAGAATTTGTTTATTTTGAACGGAGTCACCTAGTGCAG,8700 fluorescence intensity (a.u.)
17,GCCCGTTCTTCAGCTTTCGTTTGTGCGGCCATCGATCGCCCGGAGTCACCTAGTGCAG,11100 fluorescence intensity (a.u.)
18,ACTCCATTCATTTTTTTAATATATGACCTTGCGTTTGATCCGGAGTCACCTAGTGCAG,9420 fluorescence intensity (a.u.)
19,AATCTGAATTTTGGAGCCCATCAACACTGGCCTCTTTTTCCGGAGTCACCTAGTGCAG,8030 fluorescence intensity (a.u.)
20,CTCTCTCAGACTTCTCTTTCTCTCTCTGTCTCCAGCCATGCGGAGTCACCTAGTGCAG,9280 fluorescence intensity (a.u.)
21,TCCCTTCTACGCCCTTGAATTTTGCTCATTCCCTTACATACGGAGTCACCTAGTGCAG,9450 fluorescence intensity (a.u.)

# Copied from the listing (two entries):
row,Sequence,binding signal
15,TATTGATGGGCTGCTCATTCTAGTTGGGTCCGACCGGCGTCGGAGTCACCTAGTGCAG,9310 fluorescence intensity (a.u.)
16,TTAGTAGCTCAATGTCATTGGAGAATTTGTTTATTTTGAACGGAGTCACCTAGTGCAG,8700 fluorescence intensity (a.u.)

# (cont.)

row,Sequence,binding signal
1,ACGGCTTCGACTACTTCCTCTACATCGTCCACTTCGACTACGGAGTCACCTAGTGCAG,9600 fluorescence intensity (a.u.)
2,GTCGATACAAAAGTGCCTTTCTTCTTTTTTTTTTCTTCCTCGGAGTCACCTAGTGCAG,8970 fluorescence intensity (a.u.)
3,TCCTTTACCAAAGGCTGTCTACTTTTTGGTGGAGGGGAATCGGAGTCACCTAGTGCAG,8850 fluorescence intensity (a.u.)
4,AAGGTTTTTTTTTCTCCGAGTCATCTCGCCTCCTCTCGCGCGGAGTCACCTAGTGCAG,11000 fluorescence intensity (a.u.)
5,TCTTGCCAATGCCAACTTCACATGATTTCGCTCACTAGTACGGAGTCACCTAGTGCAG,8840 fluorescence intensity (a.u.)
6,CGCTGACCACAGTCCACCGTCCGTCCGTCACCCGCTCCCCCGGAGTCACCTAGTGCAG,9870 fluorescence intensity (a.u.)
7,CGCCCCTTCGGGTCACAGTGTTGCCCATCTCGTCGTCTTCCGGAGTCACCTAGTGCAG,11200 fluorescence intensity (a.u.)
8,TCACTATAACACGCACCACTCTCTAGCTACCTCGATCACCCGGAGTCACCTAGTGCAG,9260 fluorescence intensity (a.u.)
9,TTCCATTGCCGGCCCATTTCGCACCTGACGCTTTTTTCACCGGAGTCACCTAGTGCAG,10400 fluorescence intensity (a.u.)
10,AGATATTTGGTTTGGTATGTACTCTAACATTGTAAGCGACCGGAGTCACCTAGTGCAG,8580 fluorescence intensity (a.u.)
11,GGCCCACCGGTCGGTTTCCTCACGCGTCAAACACCGGTTCCGGAGTCACCTAGTGCAG,10000 fluorescence intensity (a.u.)
12,GCACTTGGTTTTTATAGCTCTGTTTGTTTTCAAGCCTCTACGGAGTCACCTAGTGCAG,12300 fluorescence intensity (a.u.)
13,CTTTGGATCTCAACTCGGCCTTAATTAGTAGCGCAGATACCGGAGTCACCTAGTGCAG,8160 fluorescence intensity (a.u.)
14,CGTGCCATCGTTGCCTTCCCGCTGTTCTCGCCGTCGCCGTCGGAGTCACCTAGTGCAG,9510 fluorescence intensity (a.u.)
15,CTATTTGTGTCTTGTGTACTTCAACGTCTTCCTCTTATGACGGAGTCACCTAGTGCAG,10800 fluorescence intensity (a.u.)
16,TTCCCTCACATCCGTGCCCTCTCCTTCTCTCTCTGTGTCTCGGAGTCACCTAGTGCAG,8110 fluorescence intensity (a.u.)
17,CACTAGTCATAGACTCTTTTCTTAGCCAAAGTTTACCACACGGAGTCACCTAGTGCAG,8730 fluorescence intensity (a.u.)
18,TTTTTGTTTTATTCCCAATCCATCTCTCATTGTCAAGAGACGGAGTCACCTAGTGCAG,8450 fluorescence intensity (a.u.)
19,TTTTATGCCGATATACCATGGCTGTGTGACCATATCTCAACGGAGTCACCTAGTGCAG,8890 fluorescence intensity (a.u.)
20,TCTATCTTGTGTTGACTCTGTTAGTTTGCAACTTTTCATACGGAGTCACCTAGTGCAG,10400 fluorescence intensity (a.u.)
21,GCCGCATGGTGGTGCTGGTTGGGGTGGTGGTGGTGGCGGCCGGAGTCACCTAGTGCAG,14800 fluorescence intensity (a.u.)

row,Sequence,binding signal
1,ATAGCGCTTTCGTCTCTCCTGACAGTATCTAGAGATACCGCGGAGTCACCTAGTGCAG,8650 fluorescence intensity (a.u.)
2,GGACCTTCGGTGTACTTTTTTCTTAGTTGCGATCCAGTTCCGGAGTCACCTAGTGCAG,9540 fluorescence intensity (a.u.)
3,GCGGTGGAGGCGGTGGCGGTGGTGGCGGTGGTGGAGGATGCGGAGTCACCTAGTGCAG,21200 fluorescence intensity (a.u.)
4,AAGAGTTTCTACCTTTGATGTTTGCACTCAGACTGTCCTTCGGAGTCACCTAGTGCAG,11200 fluorescence intensity (a.u.)
5,TGAGGGTATTATAGACATTTCTACTTCTCTTGTACATATTCGGAGTCACCTAGTGCAG,10500 fluorescence intensity (a.u.)
6,ATTAGTCATCGTCTCTCTCGTACGTGACACCGCCGCTATGCGGAGTCACCTAGTGCAG,8910 fluorescence intensity (a.u.)
7,TATTTTTCTCTGCCACTTTTGTTTCGCGGCCTGATTAGCTCGGAGTCACCTAGTGCAG,11000 fluorescence intensity (a.u.)
8,CACCATTTTCTTGCTCCTCATCTTCTTCACCACAACCATACGGAGTCACCTAGTGCAG,8500 fluorescence intensity (a.u.)
9,ACGCGCACAACAACACACACAACCCAACCCAACCCCAGCGCGGAGTCACCTAGTGCAG,8130 fluorescence intensity (a.u.)
10,AGGACACCACCGGCCTTTGTTGTTTAACTGACAGTATTAACGGAGTCACCTAGTGCAG,8150 fluorescence intensity (a.u.)
11,CGTCACGGGTACAAAATCGTCCCCATATCCACACTCACACCGGAGTCACCTAGTGCAG,8290 fluorescence intensity (a.u.)
12,CGACCGCCATTGCCTCGCCGTCTTCCGCCCCGCCCCGCCCCGGAGTCACCTAGTGCAG,14800 fluorescence intensity (a.u.)
13,GGACGGACGGGATAACACCCATGGGCCCACTTGTCATTGACGGAGTCACCTAGTGCAG,8850 fluorescence intensity (a.u.)
14,ATTCACATTTGAACACTTAATACGGTCACCCAAATGCTTACGGAGTCACCTAGTGCAG,8030 fluorescence intensity (a.u.)
15,GTGTGCTAATTAATTGTTCATGATCTCAAACCCTTTATCTCGGAGTCACCTAGTGCAG,11300 fluorescence intensity (a.u.)
16,TTTTCTATGGTTAGTTCTTGTGGGTTCCTAAGTGTGAAAACGGAGTCACCTAGTGCAG,10900 fluorescence intensity (a.u.)
17,CCACCACATCCCAGCCGCCACATCAGACGCAGAAAATCGCCGGAGTCACCTAGTGCAG,8520 fluorescence intensity (a.u.)
18,ACCTCTTCCATTTCCATCTTTCTGTTTCTGATTCATTAAACGGAGTCACCTAGTGCAG,8070 fluorescence intensity (a.u.)
19,GCACAATTTTTCAGAACTATTCTGTTCCGCTTCAGTTTTTCGGAGTCACCTAGTGCAG,9620 fluorescence intensity (a.u.)
20,GCACTAATCCCAGTGCTCTGCTGCCGCGCTTCGTCGCCGCCGGAGTCACCTAGTGCAG,8560 fluorescence intensity (a.u.)
21,GGCGTCTACTTTGCCATTGCAATTCCCATCTGCGAGAAAACGGAGTCACCTAGTGCAG,12900 fluorescence intensity (a.u.)

row,Sequence,binding signal
1,GACGAAATTCCGGCCGACGCGCGACCCCATACATCTTGGACGGAGTCACCTAGTGCAG,9510 fluorescence intensity (a.u.)
2,TCTACACCTATTGTGATGTGGAATAATTCTCCTCAAACCTCGGAGTCACCTAGTGCAG,8080 fluorescence intensity (a.u.)
3,TCATCTTCGATACTGATATTACCAAATTTAGTCGTTAACACGGAGTCACCTAGTGCAG,8100 fluorescence intensity (a.u.)
4,ACGGTAGGAGCTGCAGCGGTCGGGGTGGGAGCAGGGGTCGCGGAGTCACCTAGTGCAG,9690 fluorescence intensity (a.u.)
5,TAATCATGCTGCCGTCTCTGAATTTGCTGTGCTGCCGTCTCGGAGTCACCTAGTGCAG,8740 fluorescence intensity (a.u.)
6,CGTGCCACCTCTTGTCCCAGATCCATCCCAGATTTTCAAACGGAGTCACCTAGTGCAG,9560 fluorescence intensity (a.u.)
7,CCCACGACTCCCCACGCAATCTCACTGCCACTGCATCTTCCGGAGTCACCTAGTGCAG,8170 fluorescence intensity (a.u.)
8,ATCTGTAGCCCGTTGCTTTTCTCTCTCTTCTTTTATCTCCCGGAGTCACCTAGTGCAG,13600 fluorescence intensity (a.u.)
9,ACTCCACTGATCCACTCCATCGCCAATTCGCCGTATCAACCGGAGTCACCTAGTGCAG,10800 fluorescence intensity (a.u.)
10,GATGTAAGTGGGGTGGATAAGTGGTTTTTTTTCCTGATAGCGGAGTCACCTAGTGCAG,8040 fluorescence intensity (a.u.)
11,GGCCCTTTCGCGTGGTCGTTTGTTGGCATCTATTATCCCACGGAGTCACCTAGTGCAG,12900 fluorescence intensity (a.u.)
12,TTTAGGGTAGTCGGACTTTTTTTTTTTGCTTTTTCACTATCGGAGTCACCTAGTGCAG,10400 fluorescence intensity (a.u.)
13,CCTCTTCATCCAGTTCCACCGGCTGGCTTATGTATATTTCCGGAGTCACCTAGTGCAG,9080 fluorescence intensity (a.u.)
14,AACTCACACACACGCTAATCAGCTCAACTCTTACAGCCTACGGAGTCACCTAGTGCAG,9450 fluorescence intensity (a.u.)
15,TCCCTCTCTCTCTCTCTCTTCGTTTCCGCGCGCGCGCGCGCGGAGTCACCTAGTGCAG,9340 fluorescence intensity (a.u.)
16,CCCCGCGCCTTGATATTTGCAACTGCAAATTTGTCTATATCGGAGTCACCTAGTGCAG,9780 fluorescence intensity (a.u.)
17,ACAATACCTGCTAGCTCATCTCCATCCTCTCTCACCACCACGGAGTCACCTAGTGCAG,8530 fluorescence intensity (a.u.)
18,AGGGGTATGTTTAGTTTGCGTCAAAATTGGAAGTTTTGTTCGGAGTCACCTAGTGCAG,9040 fluorescence intensity (a.u.)
19,TCTTCTGGTCATCTCATCTGGTCATATGGGGTCTCGTTTGCGGAGTCACCTAGTGCAG,13400 fluorescence intensity (a.u.)
20,TGTCTACTAGGTGTCATTGTCAATCTGTCATTGCACAACTCGGAGTCACCTAGTGCAG,8340 fluorescence intensity (a.u.)
21,CTTTAATCCTTAGCCCCAATCAGCGCCATACTGTTGTACTCGGAGTCACCTAGTGCAG,9660 fluorescence intensity (a.u.)

# Part of the list above, with tabs.
row	Sequence	binding signal
1	GACGAAATTCCGGCCGACGCGCGACCCCATACATCTTGGACGGAGTCACCTAGTGCAG	9510 fluorescence intensity (a.u.)
4	ACGGTAGGAGCTGCAGCGGTCGGGGTGGGAGCAGGGGTCGCGGAGTCACCTAGTGCAG	9690 fluorescence intensity (a.u.)
9	ACTCCACTGATCCACTCCATCGCCAATTCGCCGTATCAACCGGAGTCACCTAGTGCAG	10800 fluorescence intensity (a.u.)
